These are yes or no findings as the source states them, for the method shown.
Molecular target: PCSK9 variant R93R96R97H139 (human)
Experiment: immunoprecipitation of 35S-PCSK9 variants, autoradiography (FIG. 8I)

B1: mAb 5E11 (rat hybridoma BNT-5E11-D4/G1-E4) (antibody, V domains shown)
VH: EVQLQESGPGLVKPSQSLSLTCSVTGYTITSGYDWSWIRRFPGNTMEWMGDISYSGSTNYNPSLKSRVSITRDTSKNQFFLQLNSVTTGDTATYYCAKLPGWGQGTLVTVSS
VL: DVVLTQTPVFLSVTLGDQTSISCRSSQSLEYSDGYTYLEWYLQKPGQSPQLLIYEVSNRFSGVPDRFIGSGSGTDFTLKISRVEPEDLGVYYCFQGTHDPLTFGSGTKLEIK
- binding: no binding

From patent US20220072032A1
